Experimental data as given in the supplement of paper PMC10849652.
The list shows a part of the results.

Amino acid sequences for entries named in this document (tags omitted). A change or cut given only in a name is not applied to a line headed by its entry.
UniProt Q96EP1: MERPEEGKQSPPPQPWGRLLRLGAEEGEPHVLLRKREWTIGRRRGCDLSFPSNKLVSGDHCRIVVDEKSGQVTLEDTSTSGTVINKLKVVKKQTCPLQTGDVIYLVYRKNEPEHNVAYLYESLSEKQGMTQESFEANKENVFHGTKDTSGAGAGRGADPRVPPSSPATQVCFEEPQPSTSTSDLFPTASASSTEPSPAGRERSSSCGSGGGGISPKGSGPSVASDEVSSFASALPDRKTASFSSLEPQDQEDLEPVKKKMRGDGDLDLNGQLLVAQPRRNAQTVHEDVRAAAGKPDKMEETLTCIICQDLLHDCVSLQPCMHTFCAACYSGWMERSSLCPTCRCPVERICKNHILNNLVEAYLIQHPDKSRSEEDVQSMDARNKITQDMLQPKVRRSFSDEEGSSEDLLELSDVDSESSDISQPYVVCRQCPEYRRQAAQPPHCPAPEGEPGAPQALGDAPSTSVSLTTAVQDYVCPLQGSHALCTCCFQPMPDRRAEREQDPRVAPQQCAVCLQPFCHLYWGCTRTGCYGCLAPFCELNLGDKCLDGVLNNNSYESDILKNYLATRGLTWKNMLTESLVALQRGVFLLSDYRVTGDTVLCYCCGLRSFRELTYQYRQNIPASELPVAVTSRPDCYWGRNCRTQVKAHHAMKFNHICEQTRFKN
UniProt Q9NRR3: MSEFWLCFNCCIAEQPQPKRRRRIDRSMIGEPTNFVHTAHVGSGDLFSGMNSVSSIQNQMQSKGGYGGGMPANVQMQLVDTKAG
UniProt Q7L2Z9: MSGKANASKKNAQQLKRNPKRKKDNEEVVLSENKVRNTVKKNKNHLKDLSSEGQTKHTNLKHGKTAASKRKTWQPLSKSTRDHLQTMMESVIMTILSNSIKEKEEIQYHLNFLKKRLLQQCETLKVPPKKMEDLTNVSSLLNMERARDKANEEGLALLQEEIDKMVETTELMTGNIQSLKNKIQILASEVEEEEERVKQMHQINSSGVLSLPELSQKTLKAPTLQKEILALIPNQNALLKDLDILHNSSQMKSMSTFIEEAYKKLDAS
UniProt Q6ZMG9: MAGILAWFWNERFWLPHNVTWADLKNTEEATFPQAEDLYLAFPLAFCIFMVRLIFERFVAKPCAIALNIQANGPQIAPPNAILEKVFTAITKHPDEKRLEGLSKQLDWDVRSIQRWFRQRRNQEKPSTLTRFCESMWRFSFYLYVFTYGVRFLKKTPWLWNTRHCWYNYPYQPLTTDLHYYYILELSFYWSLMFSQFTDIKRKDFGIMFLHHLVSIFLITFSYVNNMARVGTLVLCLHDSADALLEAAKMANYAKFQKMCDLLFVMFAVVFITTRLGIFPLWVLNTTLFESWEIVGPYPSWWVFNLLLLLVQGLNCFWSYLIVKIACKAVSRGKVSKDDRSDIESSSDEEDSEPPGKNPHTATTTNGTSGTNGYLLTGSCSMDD
UniProt Q03701: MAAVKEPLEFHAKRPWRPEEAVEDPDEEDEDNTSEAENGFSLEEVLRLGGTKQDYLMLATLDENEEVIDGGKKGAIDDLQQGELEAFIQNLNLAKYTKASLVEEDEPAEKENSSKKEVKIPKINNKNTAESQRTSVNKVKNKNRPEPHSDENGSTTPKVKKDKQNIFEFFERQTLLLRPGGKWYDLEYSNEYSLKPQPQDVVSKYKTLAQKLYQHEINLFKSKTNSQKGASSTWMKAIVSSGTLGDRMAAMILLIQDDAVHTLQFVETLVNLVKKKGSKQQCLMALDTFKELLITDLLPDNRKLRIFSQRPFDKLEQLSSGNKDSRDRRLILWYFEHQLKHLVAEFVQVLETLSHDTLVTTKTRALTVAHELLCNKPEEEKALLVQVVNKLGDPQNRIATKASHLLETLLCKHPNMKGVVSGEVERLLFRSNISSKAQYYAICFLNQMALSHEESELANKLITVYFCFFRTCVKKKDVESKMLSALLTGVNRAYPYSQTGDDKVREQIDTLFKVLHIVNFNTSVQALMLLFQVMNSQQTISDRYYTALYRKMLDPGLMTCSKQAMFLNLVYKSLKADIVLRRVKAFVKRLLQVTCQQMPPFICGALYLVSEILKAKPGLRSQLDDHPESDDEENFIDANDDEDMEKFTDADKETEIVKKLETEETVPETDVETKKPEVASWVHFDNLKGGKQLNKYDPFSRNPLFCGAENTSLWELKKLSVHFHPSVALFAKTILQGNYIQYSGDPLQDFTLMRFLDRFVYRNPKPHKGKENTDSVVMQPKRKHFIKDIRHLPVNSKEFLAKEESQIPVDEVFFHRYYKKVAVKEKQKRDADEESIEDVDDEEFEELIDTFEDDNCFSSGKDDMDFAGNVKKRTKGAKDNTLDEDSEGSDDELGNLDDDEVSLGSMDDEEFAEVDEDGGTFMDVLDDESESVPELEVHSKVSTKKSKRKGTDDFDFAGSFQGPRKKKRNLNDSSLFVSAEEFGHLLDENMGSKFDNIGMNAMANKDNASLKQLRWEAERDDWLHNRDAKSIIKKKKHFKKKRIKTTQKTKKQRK
UniProt Q5VXU3: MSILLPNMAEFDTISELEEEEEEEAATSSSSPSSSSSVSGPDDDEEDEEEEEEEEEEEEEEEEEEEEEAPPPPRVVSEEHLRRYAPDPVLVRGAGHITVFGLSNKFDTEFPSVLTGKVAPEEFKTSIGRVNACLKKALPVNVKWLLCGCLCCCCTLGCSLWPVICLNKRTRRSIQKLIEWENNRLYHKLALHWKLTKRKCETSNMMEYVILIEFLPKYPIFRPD
UniProt Q9UKJ5: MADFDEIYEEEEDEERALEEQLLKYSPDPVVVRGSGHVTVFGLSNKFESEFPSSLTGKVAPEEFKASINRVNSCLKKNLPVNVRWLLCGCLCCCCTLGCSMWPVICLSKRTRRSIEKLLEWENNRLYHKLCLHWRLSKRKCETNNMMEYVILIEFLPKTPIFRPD
UniProt Q711Q0: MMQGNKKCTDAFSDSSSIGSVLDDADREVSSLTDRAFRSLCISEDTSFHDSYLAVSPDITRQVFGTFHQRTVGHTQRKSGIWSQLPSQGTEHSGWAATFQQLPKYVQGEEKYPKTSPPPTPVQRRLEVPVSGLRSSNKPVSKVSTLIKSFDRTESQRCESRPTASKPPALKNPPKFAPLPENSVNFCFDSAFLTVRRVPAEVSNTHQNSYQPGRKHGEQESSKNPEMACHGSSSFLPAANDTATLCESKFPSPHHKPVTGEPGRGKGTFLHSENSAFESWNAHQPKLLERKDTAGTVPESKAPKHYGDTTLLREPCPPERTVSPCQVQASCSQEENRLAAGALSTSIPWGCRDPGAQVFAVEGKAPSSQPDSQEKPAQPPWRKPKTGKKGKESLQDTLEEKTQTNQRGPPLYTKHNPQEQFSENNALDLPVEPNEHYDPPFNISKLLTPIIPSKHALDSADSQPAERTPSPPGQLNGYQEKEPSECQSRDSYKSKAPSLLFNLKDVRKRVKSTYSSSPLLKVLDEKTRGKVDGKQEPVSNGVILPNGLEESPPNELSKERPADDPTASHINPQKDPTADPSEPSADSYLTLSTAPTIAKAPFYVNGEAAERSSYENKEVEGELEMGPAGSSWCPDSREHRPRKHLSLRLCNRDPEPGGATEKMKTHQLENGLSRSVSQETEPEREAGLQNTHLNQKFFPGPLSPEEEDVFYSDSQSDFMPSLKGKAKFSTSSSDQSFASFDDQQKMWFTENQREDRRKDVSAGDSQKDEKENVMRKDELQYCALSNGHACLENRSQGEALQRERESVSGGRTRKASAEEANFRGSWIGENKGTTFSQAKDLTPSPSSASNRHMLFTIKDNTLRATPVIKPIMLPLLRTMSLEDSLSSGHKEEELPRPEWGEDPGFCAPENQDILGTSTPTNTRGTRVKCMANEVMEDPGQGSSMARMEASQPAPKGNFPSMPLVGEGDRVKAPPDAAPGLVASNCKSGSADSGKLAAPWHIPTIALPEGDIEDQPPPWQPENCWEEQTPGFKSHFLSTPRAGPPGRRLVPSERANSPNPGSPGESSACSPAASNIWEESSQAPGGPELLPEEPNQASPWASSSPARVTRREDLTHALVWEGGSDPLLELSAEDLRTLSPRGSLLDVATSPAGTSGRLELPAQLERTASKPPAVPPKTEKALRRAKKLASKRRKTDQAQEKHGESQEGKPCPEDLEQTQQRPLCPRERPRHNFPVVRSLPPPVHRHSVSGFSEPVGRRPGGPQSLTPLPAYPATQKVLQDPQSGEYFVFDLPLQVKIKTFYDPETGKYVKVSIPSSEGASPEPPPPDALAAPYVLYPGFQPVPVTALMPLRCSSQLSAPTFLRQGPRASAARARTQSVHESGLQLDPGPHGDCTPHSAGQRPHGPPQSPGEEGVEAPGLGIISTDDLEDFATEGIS
UniProt O14519: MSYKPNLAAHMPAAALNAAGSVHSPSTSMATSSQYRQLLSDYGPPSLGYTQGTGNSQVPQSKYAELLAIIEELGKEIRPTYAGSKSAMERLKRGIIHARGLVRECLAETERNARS
UniProt P49918: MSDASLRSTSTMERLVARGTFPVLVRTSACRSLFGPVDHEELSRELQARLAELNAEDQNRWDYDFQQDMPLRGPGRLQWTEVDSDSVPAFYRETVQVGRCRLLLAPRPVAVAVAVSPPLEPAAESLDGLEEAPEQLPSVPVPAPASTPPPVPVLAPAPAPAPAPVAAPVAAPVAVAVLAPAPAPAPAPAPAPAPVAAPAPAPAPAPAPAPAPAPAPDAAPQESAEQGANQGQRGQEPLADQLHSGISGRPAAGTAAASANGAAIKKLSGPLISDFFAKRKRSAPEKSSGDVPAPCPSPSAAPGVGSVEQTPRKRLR
UniProt Q9H3Q1: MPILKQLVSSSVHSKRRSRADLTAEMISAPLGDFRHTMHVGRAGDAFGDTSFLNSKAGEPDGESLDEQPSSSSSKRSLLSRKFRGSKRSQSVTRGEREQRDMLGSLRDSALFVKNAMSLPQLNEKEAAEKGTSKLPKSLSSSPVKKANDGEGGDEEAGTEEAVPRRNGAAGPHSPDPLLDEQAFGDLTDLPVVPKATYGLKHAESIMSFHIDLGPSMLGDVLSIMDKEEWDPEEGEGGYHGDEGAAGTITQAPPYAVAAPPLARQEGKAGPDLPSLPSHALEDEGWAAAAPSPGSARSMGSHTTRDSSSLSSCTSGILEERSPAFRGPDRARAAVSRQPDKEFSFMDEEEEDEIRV
UniProt Q9UKI2, whole entry, looked up: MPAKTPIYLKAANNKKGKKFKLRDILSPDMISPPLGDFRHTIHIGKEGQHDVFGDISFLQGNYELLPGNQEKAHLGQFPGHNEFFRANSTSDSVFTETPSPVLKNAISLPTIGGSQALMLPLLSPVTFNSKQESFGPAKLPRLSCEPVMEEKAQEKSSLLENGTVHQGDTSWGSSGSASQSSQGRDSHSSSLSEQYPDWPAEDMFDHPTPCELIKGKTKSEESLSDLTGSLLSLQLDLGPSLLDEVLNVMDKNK
UniProt P33151: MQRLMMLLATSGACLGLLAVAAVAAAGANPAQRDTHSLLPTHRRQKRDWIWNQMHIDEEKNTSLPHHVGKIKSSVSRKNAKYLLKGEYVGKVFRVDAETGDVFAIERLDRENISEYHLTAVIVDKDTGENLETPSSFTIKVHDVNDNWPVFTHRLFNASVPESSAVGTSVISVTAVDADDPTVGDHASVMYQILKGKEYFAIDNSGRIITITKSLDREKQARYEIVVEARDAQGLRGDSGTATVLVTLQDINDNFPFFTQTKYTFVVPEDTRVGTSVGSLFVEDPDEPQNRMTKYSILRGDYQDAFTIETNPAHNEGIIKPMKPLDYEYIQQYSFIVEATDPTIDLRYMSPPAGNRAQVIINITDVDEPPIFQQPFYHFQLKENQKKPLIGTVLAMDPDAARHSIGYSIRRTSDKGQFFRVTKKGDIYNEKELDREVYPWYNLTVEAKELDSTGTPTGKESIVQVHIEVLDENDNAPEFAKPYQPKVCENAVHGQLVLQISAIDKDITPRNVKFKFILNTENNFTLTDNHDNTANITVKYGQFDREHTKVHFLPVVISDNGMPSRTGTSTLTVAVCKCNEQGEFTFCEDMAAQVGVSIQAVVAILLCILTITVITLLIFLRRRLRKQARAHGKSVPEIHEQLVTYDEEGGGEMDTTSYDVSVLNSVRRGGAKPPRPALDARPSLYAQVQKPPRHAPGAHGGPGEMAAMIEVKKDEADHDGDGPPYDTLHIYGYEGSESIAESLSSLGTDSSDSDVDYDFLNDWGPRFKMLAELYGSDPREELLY
UniProt Q8WYQ3: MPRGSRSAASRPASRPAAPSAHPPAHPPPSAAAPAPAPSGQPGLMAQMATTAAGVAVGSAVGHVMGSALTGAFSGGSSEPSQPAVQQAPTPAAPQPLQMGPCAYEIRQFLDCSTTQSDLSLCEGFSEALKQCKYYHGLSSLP
UniProt A8MTT3: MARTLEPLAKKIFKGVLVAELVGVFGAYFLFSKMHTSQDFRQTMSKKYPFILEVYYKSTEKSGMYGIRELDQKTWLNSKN

compound: COc1cc(Nc2ncc3c(n2)-c2ccc(Cl)cc2C(c2c(F)cccc2OC)=NC3)ccc1C(=O)O [alisertib]; assay: log2 fold change, soluble protein after heating vs DMSO (PISA); higher = thermal stabilisation; K562 cells, 10 uM, 30 min; active = over 0.2 and 3.5 SD of the protein, either way, in both replicates (recomputed)
Summary of the method: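 Thermal stability values are relative to control samples and come from duplicates. They are expressed as log2 fold changes. For measurement, K562 cells (2×10^6 cells/mL) received 10 μM compound for 30 min, and aliquots were heated for 3 min over 48°C-58°C, pooled, and extracted at 4°C in PBS with 0.5% NP-40. Soluble protein, the supernatant after 21,000xg for 90 min, was quantified by TMTpro 16plex LC-MS/MS with equalised channel sums.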

log2 fold change, inactive:
CHFR (UniProt Q96EP1) 0.26
CEP57 (UniProt Q86XR8) -0.191
CDS1 (UniProt Q92903) 0.213
CDC42SE2 (UniProt Q9NRR3) -0.168
CHMP2A (UniProt M0R1T5) 0.417
CENPQ (UniProt Q7L2Z9) 0.037
CFAP58 (UniProt Q5T655) -0.156
CERS6 isoform 2 (UniProt Q6ZMG9) -0.144
CDK19 (UniProt Q9BWU1) 0.234
CEBPZ (UniProt Q03701) -0.119
CHIC1 (UniProt Q5VXU3) 0
CHIC2 (UniProt Q9UKJ5) 0.096
CEFIP (UniProt Q711Q0) -0.175
CDK2AP1 (UniProt O14519) -0.142
CHD5 (UniProt Q8TDI0) 0.01
CDKN1C (UniProt P49918) -0.165
CDC42EP4 (UniProt Q9H3Q1) -0.055
CFB (UniProt P00751) 0.078
CDC42EP3 (UniProt Q9UKI2) -0.188
CDH5 (UniProt P33151) -0.146
CHCHD10 (UniProt Q8WYQ3) -0.023
CEP85 (UniProt Q6P2H3) -0.007
CEBPZOS (UniProt A8MTT3) -0.014

Reprinted at random: 2 records from the list, in no set order.
log2 fold change, inactive:
CHMP2A (UniProt M0R1T5) 0.417
CDK2AP1 (UniProt O14519) -0.142
